B1: Integrin-linked protein kinase; ILK (protein, UniProt Q13418 1-452, looked up)
Scaffold protein ILK: MDDIFTQCREGNAVAVRLWLDNTENDLNQGDDHGFSPLHWACREGRSAVVEMLIMRGARINVMNRGDDTPLHLAASHGHRDIVQKLLQYKADINAVNEHGNVPLHYACFWGQDQVAEDLVANGALVSICNKYGEMPVDKAKAPLRELLRERAEKMGQNLNRIPYKDTFWKGTTRTRPRNGTLNKHSGIDFKQLNFLTKLNENHSGELWKGRWQGNDIVVKVLKVRDWSTRKSRDFNEECPRLRIFSHPNVLPVLGACQSPPAPHPTLITHWMPYGSLYNVLHEGTNFVVDQSQAVKFALDMARGMAFLHTLEPLIPRHALNSRSVMIDEDMTARISMADVKFSFQCPGRMYAPAWVAPEALQKKPEDTNRRSADMWSFAVLLWELVTREVPFADLSNMEIGMKVALEGLRPTIPPGISPHVCKLMKICMNEDPAKRPKFDMIVPILEKMQDK
B2: Calpain-1 catalytic subunit; CAPN1 (protein, UniProt P07384 2-714, looked up)
Calpain-1 catalytic subunit: SEEIITPVYCTGVSAQVQKQRARELGLGRHENAIKYLGQDYEQLRVRCLQSGTLFRDEAFPPVPQSLGYKDLGPNSSKTYGIKWKRPTELLSNPQFIVDGATRTDICQGALGDCWLLAAIASLTLNDTLLHRVVPHGQSFQNGYAGIFHFQLWQFGEWVDVVVDDLLPIKDGKLVFVHSAEGNEFWSALLEKAYAKVNGSYEALSGGSTSEGFEDFTGGVTEWYELRKAPSDLYQIILKALERGSLLGCSIDISSVLDMEAITFKKLVKGHAYSVTGAKQVNYRGQVVSLIRMRNPWGEVEWTGAWSDSSSEWNNVDPYERDQLRVKMEDGEFWMSFRDFMREFTRLEICNLTPDALKSRTIRKWNTTLYEGTWRRGSTAGGCRNYPATFWVNPQFKIRLDETDDPDDYGDRESGCSFVLALMQKHRRRERRFGRDMETIGFAVYEVPPELVGQPAVHLKRDFFLANASRARSEQFINLREVSTRFRLPPGEYVVVPSTFEPNKEGDFVLRFFSEKSAGTVELDDQIQANLPDEQVLSEEEIDENFKALFRQLAGEDMEISVKELRTILNRIISKHKDLRTKGFSLESCRSMVNLMDRDGNGKLGLVEFNILWNRIRNYLSIFRKFDLDKSGSMSAYEMRMAIESAGFKLNKKLYELIITRYSEPDLAVDFDNFVCCLVRLETMFRFFKTLDTDLDGVVTFDLFKWLQLTMFA
B3: Heat shock protein 75 kDa, mitochondrial, TRAP1 (protein, UniProt Q12931 60-704, looked up)
Heat shock protein 75 kDa, …: STQTAEDKEEPLHSIISSTESVQGSTSKHEFQAETKKLLDIVARSLYSEKEVFIRELISNASDALEKLRHKLVSDGQALPEMEIHLQTNAEKGTITIQDTGIGMTQEELVSNLGTIARSGSKAFLDALQNQAEASSKIIGQFGVGFYSAFMVADRVEVYSRSAAPGSLGYQWLSDGSGVFEIAEASGVRTGTKIIIHLKSDCKEFSSEARVRDVVTKYSNFVSFPLYLNGRRMNTLQAIWMMDPKDVREWQHEEFYRYVAQAHDKPRYTLHYKTDAPLNIRSIFYVPDMKPSMFDVSRELGSSVALYSRKVLIQTKATDILPKWLRFIRGVVDSEDIPLNLSRELLQESALIRKLRDVLQQRLIKFFIDQSKKDAEKYAKFFEDYGLFMREGIVTATEQEVKEDIAKLLRYESSALPSGQLTSLSEYASRMRAGTRNIYYLCAPNRHLAEHSPYYEAMKKKDTEVLFCFEQFDELTLLHLREFDKKKLISVETDIVVDHYKEEKFEDRSPAAECLSEKETEELMAWMRNVLGSRVTNVKVTLRLDTHPAMVTVLEMGAARHFLRMQQLAKTQEERAQLLQPTLEINPRHALIKKLNQLRASEPGLAQLLVDQIYENAMIAAGLVDDPRAMVGRLNELLVKALERH
B4: Hsc70-interacting protein; HIP (protein, UniProt P50502 1-369, looked up)
Hsc70-interacting protein: MDPRKVNELRAFVKMCKQDPSVLHTEEMRFLREWVESMGGKVPPATQKAKSEENTKEEKPDSKKVEEDLKADEPSSEESDLEIDKEGVIEPDTDAPQEMGDENAEITEEMMDQANDKKVAAIEALNDGELQKAIDLFTDAIKLNPRLAILYAKRASVFVKLQKPNAAIRDCDRAIEINPDSAQPYKWRGKAHRLLGHWEEAAHDLALACKLDYDEDASAMLKEVQPRAQKIAEHRRKYERKREEREIKERIERVKKAREEHERAQREEEARRQSGAQYGSFPGGFPGGMPGNFPGGMPGMGGGMPGMAGMPGLNEILSDPEVLAAMQDPEVMVAFQDVAQNPANMSKYQSNPKVMNLISKLSAKFGGQA
B5: Tyrosine-protein kinase BTK (protein, UniProt Q06187 2-659, looked up)
Tyrosine-protein kinase BTK: AAVILESIFLKRSQQKKKTSPLNFKKRLFLLTVHKLSYYEYDFERGRRGSKKGSIDVEKITCVETVVPEKNPPPERQIPRRGEESSEMEQISIIERFPYPFQVVYDEGPLYVFSPTEELRKRWIHQLKNVIRYNSDLVQKYHPCFWIDGQYLCCSQTAKNAMGCQILENRNGSLKPGSSHRKTKKPLPPTPEEDQILKKPLPPEPAAAPVSTSELKKVVALYDYMPMNANDLQLRKGDEYFILEESNLPWWRARDKNGQEGYIPSNYVTEAEDSIEMYEWYSKHMTRSQAEQLLKQEGKEGGFIVRDSSKAGKYTVSVFAKSTGDPQGVIRHYVVCSTPQSQYYLAEKHLFSTIPELINYHQHNSAGLISRLKYPVSQQNKNAPSTAGLGYGSWEIDPKDLTFLKELGTGQFGVVKYGKWRGQYDVAIKMIKEGSMSEDEFIEEAKVMMNLSHEKLVQLYGVCTKQRPIFIITEYMANGCLLNYLREMRHRFQTQQLLEMCKDVCEAMEYLESKQFLHRDLAARNCLVNDQGVVKVSDFGLSRYVLDDEYTSSVGSKFPVRWSPPEVLMYSKFSSKSDIWAFGVLMWEIYSLGKMPYERFTNSETAEHIAQGLRLYRPHLASEKVYTIMYSCWHEKADERPTFKILLSNILDVMDEES
B6: Epidermal growth factor receptor substrate 15 (protein)
chain: AAAAQLSLTQLSSGNPVYEKYYRQVDTGNTGRVLASDAAAFLKKSGLPDLILGKIWDLADTDGKGILNKQEFFVALRLVACAQNGLEVSLSSLNLAVPPPRFHDTSSPLLISGTSAAELPWAVKPEDKAKYDAIFDSLSPVNGFLSGDKVKPVLLNSKLPVDILGRVWELSDIDHDGMLDRDEFAVAMFLVYCALEKEPVPMSLPPALVPPSKRKTWVVSPAEKAKYDEIFLKTDKDMDGFVSGLEVREIFLKTGLPSTLLAHIWSLCDTKDCGKLSKDQFALAFHLISQKLIKGIDPPHVLTPEMIPPSDRASLQKNIIGSSPVADFSAIKELDTLNNEIVDLQREKNNVEQDLKEKEDTIKQRTSEVQDLQDEVQRENTNLQKLQAQKQQVQELLDELDEQKAQLEEQLKEVRKKCAEEAQLISSLKAELTSQESQISTYEEELAKAREELSRLQQETAELEESVESGKAQLEPLQQHLQDSQQEISSMQMKLMEMKDLENHNSQLNWCSSPHSILVNGATDYCSLSTSSSETANLNEHVEGQSNLESEPIHQESPARSSPELLPSGVTDENEVTTAVTEKVCSELDNNRHSKEEDPFNVDSSSLTGPVADTNLDFFQSDPFVGSDPFKDDPFGKIDPFGGDPFKGSDPFASDCFFRQSTDPFATSSTDPFSAANNSSITSVETLKHNDPFAPGGTVVAASDSATDPFASVFGNESFGGGFADFSTLSKVNNEDPFRSATSSSVSNVVITKNVFEETSVKSEDEPPALPPKIGTPTRPCPLPPGKRSINKLDSPDPFKLNDPFQPFPGNDSPKEKDPEIFCDPFTSATTTTNKEADPSNFANFSAYPSEEDMIEWAKRESEREEEQRLARLNQQEQEDLELAIALSKSEISEA
B7: Serine/threonine-protein kinase NLK (protein, UniProt Q9UBE8 1-527, looked up)
Serine/threonine-protein …: MSLCGARANAKMMAAYNGGTSAAAAGHHHHHHHHLPHLPPPHLHHHHHPQHHLHPGSAAAVHPVQQHTSSAAAAAAAAAAAAAMLNPGQQQPYFPSPAPGQAPGPAAAAPAQVQAAAAATVKAHHHQHSHHPQQQLDIEPDRPIGYGAFGVVWSVTDPRDGKRVALKKMPNVFQNLVSCKRVFRELKMLCFFKHDNVLSALDILQPPHIDYFEEIYVVTELMQSDLHKIIVSPQPLSSDHVKVFLYQILRGLKYLHSAGILHRDIKPGNLLVNSNCVLKICDFGLARVEELDESRHMTQEVVTQYYRAPEILMGSRHYSNAIDIWSVGCIFAELLGRRILFQAQSPIQQLDLITDLLGTPSLEAMRTACEGAKAHILRGPHKQPSLPVLYTLSSQATHEAVHLLCRMLVFDPSKRISAKDALAHPYLDEGRLRYHTCMCKCCFSTSTGRVYTSDFEPVTNPKFDDTFEKNLSSVRQVKEIIHQFILEQQKGNRVPLCINPQSAAFKSFISSTVAQPSEMPPSPLVWE
B8: Histone-arginine methyltransferase CARM1 (protein, UniProt Q86X55 2-608, looked up)
Histone-arginine …: AAAAAAVGPGAGGAGSAVPGGAGPCATVSVFPGARLLTIGDANGEIQRHAEQQALRLEVRAGPDSAGIALYSHEDVCVFKCSVSRETECSRVGKQSFIITLGCNSVLIQFATPNDFCSFYNILKTCRGHTLERSVFSERTEESSAVQYFQFYGYLSQQQNMMQDYVRTGTYQRAILQNHTDFKDKIVLDVGCGSGILSFFAAQAGARKIYAVEASTMAQHAEVLVKSNNLTDRIVVIPGKVEEVSLPEQVDIIISEPMGYMLFNERMLESYLHAKKYLKPSGNMFPTIGDVHLAPFTDEQLYMEQFTKANFWYQPSFHGVDLSALRGAAVDEYFRQPVVDTFDIRILMAKSVKYTVNFLEAKEGDLHRIEIPFKFHMLHSGLVHGLAFWFDVAFIGSIMTVWLSTAPTEPLTHWYQVRCLFQSPLFAKAGDTLSGTCLLIANKRQSYDISIVAQVDQTGSKSSNLLDLKNPFFRYTGTTPSPPPGSHYTSPSENMWNTGSTYNLSSGMAVAGMPTAYDLSSVIASGSSVGHNNLIPLANTGIVNHTHSRMGSIMSTGIVQGSSGAQGSGGGSTSAHYAVNSQFTMGGPAISMASPMSIPTNTMHYGS

Tested on: Hsp90 complexes in K562 cell extract
Test: Nano-LC-MS/MS of PU-beads pull-downs
Assay type: binding
Conditions: for Matched Peptides by Fraction JA06: Run1, gel size cut 40-60; for MAXIMUM matched peptides: maximum over fractions JA01-JA14; for Total fmol: protein isolated in PU-beads pull-downs, Waters Xevo QTof MS; for Matched Peptides by Fraction JA05: Run1, gel size cut 60-80; for Matched Peptides by Fraction JA12: Run2, gel size cut 60-80; for Matched Peptides by Fraction JA13: Run2, gel size cut 40-60
How it was run: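 Lysates pre-cleared overnight at 4 °C with control beads, then pulled down with PU-beads or control beads; eluted proteins (2% SDS boil) gel-separated and analysed by nano LC-MS/MS on a QTof. Mascot identification (p<0.05), spectral counts and sequence coverage evaluated in Scaffold.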

Row | Molecule | Matched Peptides by Fraction JA06 (PU-beads pull-down) | MAXIMUM matched peptides (PU-beads pull-down) | Total fmol [fmol] | Matched Peptides by Fraction JA05 (PU-beads pull-down) | Matched Peptides by Fraction JA12 (PU-beads pull-down) | Matched Peptides by Fraction JA13 (PU-beads pull-down) | Matched Peptides by Fraction JA03 (PU-beads pull-down, Run1, gel size cut 110-150) | Matched Peptides by Fraction JA10 (PU-beads pull-down, Run2, gel size cut 110-150) | Matched Peptides by Fraction JA01 (PU-beads pull-down, Run1, gel size cut >200) | Matched Peptides by Fraction JA08 (PU-beads pull-down, Run2, gel size cut >200)
1 | B1 | 4 | 4 | 1.6140 | – | – | – | – | – | – | –
2 | B2 | – | 27 | 18.7642 | 22 | 27 | – | – | – | – | –
3 | B3 | – | 90 | 209.2569 | 80 | 90 | – | – | – | – | –
4 | B4 | 23 | 23 | 96.9194 | – | – | 19 | – | – | – | –
5 | B5 | – | 14 | 10.8031 | 11 | 14 | – | – | – | – | –
6 | B6 | – | 33 | 20.4881 | – | – | – | 24 | 33 | – | –
7 | B7 | 7 | 14 | 7.0941 | – | – | 14 | – | – | – | –
8 | B8 | – | 25 | 50.3460 | 22 | 25 | – | – | – | 5 | 7

Source: patent publication US20220074941A1, “HSP90 COMBINATION THERAPY” (Sloan-Kettering Institute for Cancer Research, priority 2011, published 2022)
